From PubChem BioAssay AID2685 (National Center for Advancing Translational Sciences (NCATS), 2010) come the findings set out here.

In general, AC50 refers to the concentration at which the activity in the assay is half-maximal.

The nature of the test: qHTS Assay for Lipid Storage Modulators in Drosophila S3 Cells.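 On cell number change: cells counted by Cell Tracker Red CMTPX staining in the red channel.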 Conditions: BODIPY lipid droplet fluorescence, 18-24 h; for cell number change: measured here: cell count max response, cells fed with added oleic acid. The method, boiled down:
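Drosophila S3 cells loaded with oleic acid (400 uM, as added) and compounds at several concentrations; lipid droplets imaged by 488-nm laser-scanning cytometry, 500–530 nm intensity and object ratio to cell channel. Percent activity normalized to 20 uM Triacsin C.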
For orientation: qHTS replaces the single test concentration by a dilution series.

The mark [1] stands for this setting: measured here: cell number channel AC50, cells fed with added oleic acid.
Setting [2] is: measured here: lipid fluorescence (Fed channel) AC50, cells fed with added oleic acid.

Some of the results follow. These are further read-outs of the screen, such as a control signal, another cell line or another target. No call is given for them. Most of these compounds were active or inconclusive in the main read-out, so they are no random draw. The note in brackets gives the kind of curve behind each potency; many fits are weak.

Consider `CCN(CC)S(=O)(=O)c1cccc(C(=O)NC(C(=O)Nc2nnc(C)s2)C(C)C)c1` (centres undefined), for which the cell number change worked out at 43.7%. Further, the concentration at half-maximal activity (AC50) under setting [1] was 11.6 µM [rising, partial curve, poor fit]. In addition, under setting [2], the AC50 was 6.51 µM [rising, single point].

Turning to `C=CCn1c(Cc2cccc3ccccc23)n[nH]c1=S`, the cell number change was -11.5%. The concentration at half-maximal activity (AC50) under setting [2] was 14.6 µM [rising, partial curve]. Take `NS(=O)(=O)c1ccc(CCNC(=O)CSc2ccsc2[N+](=O)[O-])cc1`: the cell number change was -1.96%. For the same compound, the concentration at half-maximal activity (AC50) under setting [1] was 4.61 µM [rising, single point]. Besides, under setting [2], the concentration at half-maximal activity (AC50) was 6.51 µM [rising, partial curve]. For the compound `CN(C)CCN(C(=O)c1ccc2ccccc2c1)c1nc2ccc(Br)cc2s1`, the cell number change is 30.1%. Moreover, the AC50 under setting [1] is 2.91 µM [rising, partial curve, poor fit]. `Cc1ccc(S(=O)(=O)N/N=C\c2ccc([N+](=O)[O-])o2)cc1`: the cell number change is -76%. In addition, under setting [1], the AC50 was 20.6 µM [falling, partial curve, poor fit]. Moreover, the concentration at half-maximal activity (AC50) under setting [2] is 20.6 µM [falling, partial curve, poor fit].

Consider `COc1ccc2cc(Br)ccc2c1CC(=O)NC(C)C`, for which the cell number change turned out to be 30%. The AC50 under setting [1] was 32.6 µM [rising, single point]. The half-maximal activity concentration (AC50) under setting [2] was 3.26 µM [rising, full curve, poor fit].

Take `CCOC(=O)N1CCN(CC(O)COc2ccccc2C(C)CC)CC1` (centres undefined): under setting [2], the half-maximal activity concentration (AC50) was 4.11 µM [falling, partial curve]. The same measure, in the same setting: the result for `Cc1cccc(NC(=O)c2cc(NC(=O)c3ccco3)ccc2Cl)n1` reads 0.58 µM [rising, single point]. For `CC(=O)NC(C)C(=O)OCC(=O)Nc1ccc(Br)cc1` (centres undefined), the cell number change was -162%. Also, the half-maximal activity concentration (AC50) under setting [1] is 25.9 µM [falling, partial curve]. Take `CCC(=O)c1cn(CC(=O)Nc2cccc(C)c2)c2ccccc12`: the cell number change was 10.9%. Under setting [2], the AC50 was 29.1 µM [rising, single point]. With `O=c1[nH]c(=O)n(CCOc2ccc(Cl)cc2)cc1Br`, the cell number change came to 4.31%. Further, the concentration at half-maximal activity (AC50) under setting [2] is 0.206 µM [rising, full curve]. Take `COc1cc(Br)c(C(C)NC(=O)c2ccccc2)cc1OC` (centres undefined): the cell number change came out at 105%. Moreover, the half-maximal activity concentration (AC50) under setting [1] is 29.1 µM [rising, single point]. For the same compound, the AC50 under setting [2] was 29.1 µM [rising, partial curve]. As for `COC(=O)c1cccc(NC(=O)Cn2cnc3c2c(=O)n(C)c(=O)n3C)c1`, the cell number change is 14.5%. Moreover, the AC50 under setting [2] was 6.51 µM [rising, single point].

Turning to `CCCc1cc(=O)oc2c(C)c(OC(C)C(=O)NCc3ccccn3)ccc12` (centres undefined), the cell number change was determined as 1.19%. Besides, under setting [2], the AC50 is 0.164 µM [falling, full curve, poor fit]. In the case of `Cc1ccc(OCC(=O)NCc2n[nH]c(=O)c3ccccc23)cc1`, the cell number change came to 3.96%. The AC50 under setting [1] is 0.00517 µM [falling, full curve, poor fit]. Turning to `CCCn1c(N)c(C(=O)COC(=O)COc2ccc(Cl)c(C)c2)c(=O)n(C)c1=O`, the cell number change was found to be 24.1%. On to `CCOc1ccc2oc(C(=O)OCC(=O)NC3CC3)c(C)c2c1`, for which the cell number change is 12.9%. As to `Clc1ccc(Cn2c(CN3CCCC3)nc3ccccc32)cc1`, the cell number change is 16.4%. For the same compound, the AC50 under setting [2] is 0.0206 µM [rising, full curve, poor fit]. With `O=c1oc2ccccc2c(O)c1C=Nc1cccnc1`, the cell number change stood at 4.39%. Further, under setting [2], the AC50 was 0.231 µM [rising, full curve, poor fit]. Turning to `Cc1ccccc1NC(=O)CSC1=C(C#N)C(c2ccsc2)CC(=O)N1` (centres undefined), the cell number change worked out at 11.3%. Besides, the AC50 under setting [2] was 2.06 µM [rising, partial curve]. With `CCN(CC)CCOc1c(C)cccc1Cl`, the cell number change was -61.5%. The half-maximal activity concentration (AC50) under setting [1] is 18.4 µM [falling, partial curve]. As for `O=C(Nc1ccccc1)c1ccc(=O)n(Cc2cccc(Cl)c2)c1`, the cell number change was -52.9%. Further, under setting [1], the AC50 was 5.8 µM [falling, partial curve]. Further, under setting [2], the AC50 was 5.17 µM [falling, partial curve].

Turning to `CCOC(=O)c1c(NC(=O)CCN2CCOCC2)sc(C)c1-c1ccccc1`, the cell number change is -18%. Take `Cc1c(C(=O)N2CCCC2)oc2c1-c1[nH]ncc1CC2`: the cell number change was determined as 6.95%. In addition, the concentration at half-maximal activity (AC50) under setting [2] was 9.2 µM [rising, single point].

As for `CCN(CC)CCNC(=S)Nc1ccc2nc(N3CCN(C)CC3)cc(C)c2c1`, the cell number change came out at 22.7%. For the same compound, the concentration at half-maximal activity (AC50) under setting [2] is 3.66 µM [rising, partial curve, poor fit]. With `CC(C)OC(=O)CSc1nnc(-c2ccccn2)n1C`, the cell number change was -1.71%. Under setting [2], the half-maximal activity concentration (AC50) was 0.00461 µM [falling, full curve, poor fit]. For the compound `C/C(=N\NC(=O)c1ccn(C)n1)c1cccc(NC(=O)c2ccc(C)s2)c1`, the cell number change was 30.5%. Moreover, the half-maximal activity concentration (AC50) under setting [1] was 5.8 µM [rising, partial curve]. The AC50 under setting [2] is 5.17 µM [rising, partial curve].

With `O=C(C1CCCN(S(=O)(=O)Cc2ccccc2)C1)N1CCC(Cc2ccccc2)CC1` (centres undefined), the cell number change came to 80.9%. Moreover, under setting [1], the AC50 is 18.4 µM [rising, single point]. Besides, the AC50 under setting [2] is 29.1 µM [rising, single point]. Turning to `CCC(C(=O)N1CCC(C(N)=O)CC1)n1nc(C)n2c(cc3occc32)c1=O` (centres undefined), the cell number change is -0.382%. Also, under setting [2], the AC50 is 18.4 µM [rising, single point]. For `CC1CCCN(C(=O)COC(=O)c2ccc(=O)n(Cc3ccccc3)n2)C1` (centres undefined), the cell number change was -2.99%. For the same compound, the AC50 under setting [2] is 16.4 µM [rising, single point]. In the case of `N#CC1=C(N)Oc2n[nH]c(-c3cccs3)c2C1c1ccoc1` (centres undefined), the cell number change is -1.09%. Further, the AC50 under setting [2] is 8.2 µM [rising, partial curve, poor fit]. For the compound `CC(=O)N1c2ccccc2S(=O)(=O)c2ccccc21`, the cell number change is -11%. Further, the half-maximal activity concentration (AC50) under setting [2] was 10.3 µM [falling, partial curve, poor fit]. `CCn1ncc([C@@H]2C[C@H]3CN(Cc4ccccc4C)C(=O)[C@]34CCCN24)c1C`: the cell number change turned out to be 3.37%. Besides, the AC50 under setting [2] is 6.51 µM [falling, single point]. On to `CCc1ccc(S(=O)(=O)/N=C2\C=C(NS(=O)(=O)c3ccccc3)C(=O)c3ccccc32)cc1`, for which the cell number change came to 5.56%. Take `O=C(Nc1cccc(NC(=O)c2ccc(F)cc2)c1)c1ccc(F)cc1`: the cell number change was found to be 112%. Moreover, the AC50 under setting [1] is 25.9 µM [rising, partial curve]. Further, the AC50 under setting [2] is 29.1 µM [falling, single point]. Consider `Cc1cc(C)cc(NC(=O)C2CCCN(c3nccc(C)n3)C2)c1` (centres undefined), for which, under setting [2], the half-maximal activity concentration (AC50) was 0.58 µM [rising, single point].

As to `O=C(Nc1ccc(C(=O)NCCCN2CCN(c3ccccc3)CC2)cc1)C1=CSCCO1`, the cell number change turned out to be 3.4%. For the same compound, the concentration at half-maximal activity (AC50) under setting [1] was 0.651 µM [rising, partial curve, poor fit]. Take `Cc1ccc(N(CC(=O)NC(C)c2ccccc2)S(=O)(=O)c2c(C)n[nH]c2C)cc1` (centres undefined): the cell number change came to 22.1%. `COc1ccc(CCNC(=O)CCCCCN2C(=O)[C@@H]3Cc4ccccc4CN3C2=O)cc1OC`: under setting [2], the concentration at half-maximal activity (AC50) is 5.17 µM [rising, single point]. Regarding `CCc1ccc([C@@H]2CC=C(C(=O)O)[C@H](c3ccc(Cl)cc3)N2S(=O)(=O)c2ccc(C)cc2)cc1`, the cell number change was -30.4%. Besides, the AC50 under setting [1] is 29.1 µM [falling, single point].

Take `O=C(CCNS(=O)(=O)c1ccc2c(c1)CCC(=O)N2)Nc1ccc(F)c(F)c1`: the cell number change came to 11.2%. The AC50 under setting [2] is 1.84 µM [falling, single point]. As for `COc1ccccc1-n1c(-c2ccco2)n[nH]c1=S`, the cell number change came to 8.51%. With `O=C(NCCc1ccccc1)C(c1ccc(F)cc1)N(C(=O)c1csnn1)C1CC1` (centres undefined), the cell number change was -9.52%. In addition, the half-maximal activity concentration (AC50) under setting [2] was 3.26 µM [rising, single point].

With `CSc1ccccc1NC(=O)CSc1nnc(Cc2ccccc2)o1`, the cell number change came to 7.69%. On to `C/C(=N\NC(=O)Cc1ccccc1)c1ccc(Br)s1`, for which the cell number change was -14.2%. For the same compound, under setting [2], the AC50 is 29.1 µM [falling, single point].

For `Cc1ccc(C)c(OCc2cc(C(=O)N3CC[C@@H]4CCCC[C@H]4C3)no2)c1`, the cell number change was -40.4%. For the same compound, the AC50 under setting [1] is 18.4 µM [falling, single point].

`O=C(CCC1CCCN(C(=O)CCC(F)(F)F)C1)NCc1ccc(F)c(F)c1` (centres undefined): the cell number change is -7.07%. Moreover, the concentration at half-maximal activity (AC50) under setting [2] is 0.651 µM [rising, full curve].

As for `Nn1c(-c2cccs2)nc2sc3c(c2c1=O)CCCC3`, the cell number change is -25.7%. Besides, under setting [2], the AC50 is 3.66 µM [rising, single point]. On to `O=C(CN1C(=O)NC2(CCCC2)C1=O)N1CCN(S(=O)(=O)c2ccccc2[N+](=O)[O-])CC1`, for which the cell number change was 1.39%. In addition, the AC50 under setting [2] was 3.26 µM [falling, single point].

For `CC(C)c1ccccc1NC(=S)NC1CCN(Cc2ccccc2)CC1`, under setting [2], the AC50 is 0.206 µM [rising, full curve, poor fit]. For `Cc1ncc([N+](=O)[O-])n1CC(=O)Nc1ccc(F)c(Cl)c1`, the cell number change came to 0.945%. Moreover, under setting [2], the concentration at half-maximal activity (AC50) was 29.1 µM [rising, single point]. Regarding `COc1ccc(C(=O)NCC(=O)Nc2ccccc2)cc1OC`, the cell number change was found to be 49.1%. Under setting [1], the AC50 is 29.1 µM [rising, single point]. Also, under setting [2], the AC50 was 29.1 µM [rising, single point].

Consider `CCc1ccc(NC(=O)CSc2nc3c(c(=O)n(C)c(=O)n3C)n2C)cc1`, for which, under setting [2], the AC50 was 1.3 µM [rising, full curve, poor fit]. Regarding `CSc1nnc(CCNC(=O)OC(C)(C)C)o1`, the cell number change was found to be 8.07%. Moreover, the AC50 under setting [1] was 0.411 µM [falling, full curve]. Turning to `Cc1c(CCC(=O)O)c(=O)n2c([nH]c3ccccc32)c1C#N`, the cell number change is -45.4%. For the same compound, under setting [1], the AC50 was 0.103 µM [falling, full curve, poor fit]. Also, the AC50 under setting [2] was 2.91 µM [falling, full curve]. Regarding `COc1ccc2cc3c(N)nn(C(=O)Cc4ccccc4OC)c3nc2c1`, the AC50 under setting [1] was 0.326 µM [rising, full curve] and the concentration at half-maximal activity (AC50) under setting [2] is 0.291 µM [rising, full curve].

Consider `COCc1c(C(=O)Nc2ccc(Cl)cc2F)oc2ccccc12`, for which the cell number change stood at 2.32%. Also, the AC50 under setting [2] is 4.11 µM [rising, single point]. As for `O=C(NCc1ccco1)C1CC(c2cccc([N+](=O)[O-])c2)=NO1` (centres undefined), the cell number change stood at 8.06%. The AC50 under setting [2] was 29.1 µM [rising, single point].
